PubChem BioAssay AID1224830 – NIAID, 2016

Test: 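Host factors that control LPS-induced TNF expression in human macrophages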 (primary screen)
Cells: human THP-1 monocytic leukaemia cells, TNF dual-luciferase reporter clone, PMA-differentiated to macrophage-like cells
Reagent: siRNA pool against human genes, 50 nM
Duration: LPS for 4 h, given about 3 days after siRNA transfection
Conditions: bacterial LPS (TLR4 ligand), 10 ng/ml
Measured: 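Ratio of firefly to renilla light, scaled to the plate median and expressed as a robust z-score per replicate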
Reading the numbers: TNF reporter robust z-score: higher = stronger TNF reporter response to LPS
Call rule: 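a well is active when its z-score exceeds 2.8 or falls below -1.5; control wells carry no call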
Shown is one part, drawn at random, of about 18,000 deposited reagents. About 2,900 of all reagents (16%) count as active. 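Calls are made per well; low scores hint the gene aids the LPS response, high scores that it dampens it.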 Unmarked entries are inactive. Repeated entries: four replicate wells of each siRNA pool.

| TNF reporter robust z-score | target gene |
| --- | --- |
| -0.4 | GYG1 (glycogenin 1) |
| 0.75 | GYG1 (glycogenin 1) |
| -0.24 | GYG1 (glycogenin 1) |
| 1.82 | GYG1 (glycogenin 1) |
| -0.96 | TIGIT (T cell immunoreceptor with Ig and ITIM domains) |
| 0.6 | TIGIT (T cell immunoreceptor with Ig and ITIM domains) |
| 0.46 | TIGIT (T cell immunoreceptor with Ig and ITIM domains) |
| 0.27 | TIGIT (T cell immunoreceptor with Ig and ITIM domains) |
| 2.69 | SLC25A6 |
| 2.01 | SLC25A6 |
| 3.17 (active) | SLC25A6 |
| 3.87 (active) | SLC25A6 |
| 0.09 | PCDHB4 (protocadherin beta 4) |
| -1.28 | PCDHB4 (protocadherin beta 4) |
| -0.65 | PCDHB4 (protocadherin beta 4) |
| -0.07 | PCDHB4 (protocadherin beta 4) |

Continued.
| TNF reporter robust z-score | target gene |
| --- | --- |
| -0.23 | ZNF100 (zinc finger protein 100) |
| -0.66 | ZNF100 (zinc finger protein 100) |
| 0.2 | ZNF100 (zinc finger protein 100) |
| 0.8 | ZNF100 (zinc finger protein 100) |
| 0.43 | FRRS1L (ferric chelate reductase 1 like) |
| 2.52 | FRRS1L (ferric chelate reductase 1 like) |
| -0.12 | FRRS1L (ferric chelate reductase 1 like) |
| -0.06 | FRRS1L (ferric chelate reductase 1 like) |
| 0.48 | SLC30A5 |
| 0.35 | SLC30A5 |
| 0.38 | SLC30A5 |
| 0.31 | SLC30A5 |
| 0.65 | SLC22A3 |
| 1.25 | SLC22A3 |
| 1.93 | SLC22A3 |
| 1.4 | SLC22A3 |
| 0.54 | TFDP3 (transcription factor Dp family member 3) |
| 1.9 | TFDP3 (transcription factor Dp family member 3) |
| -0.48 | TFDP3 (transcription factor Dp family member 3) |
| 1.56 | TFDP3 (transcription factor Dp family member 3) |
| -0.91 | SLC25A2 |
| -0.14 | SLC25A2 |
| -0.15 | SLC25A2 |
| -0.43 | SLC25A2 |
| -1.77 (active) | SKIC8 (SKI8 subunit of superkiller complex) |
| -1.73 (active) | SKIC8 (SKI8 subunit of superkiller complex) |
| -1.87 (active) | SKIC8 (SKI8 subunit of superkiller complex) |
| 1.29 | MMP12 (matrix metallopeptidase 12) |
| 1.78 | MMP12 (matrix metallopeptidase 12) |
| 0.85 | MMP12 (matrix metallopeptidase 12) |
| 2.2 | MMP12 (matrix metallopeptidase 12) |
